Patent US4452807A, “(R,S)-1-(3-Hydroxy-4-methoxybenzoyl)-3-hydroxy-2-pyrrolidinone intermediates therefor and use for treating cerebral insufficiency” (Hoffmann-La Roche Inc., priority 1981, dated 1984)

Test system: short-time memory
Assay: Passive avoidance ("Skinner box") test, reversal of scopolamine-induced blocking of short-time memory
Type: in vivo, rats
Details: scopolamine 0.3 mg/kg intraperitoneally and distilled water orally; during 3-4 hours

CN1[C@@H]2C[C@@H](OC(=O)[C@H](CO)c3ccccc3)C[C@H]1[C@@H]1O[C@@H]12 [scopolamine]
animals with retrograde effect on the short-time memory (have forgotten that they must remain on the platform): 85-92%
